These are yes or no findings as the source states them, for the method shown. In cells and extracts the contact can be indirect. For part of these data: Binding calls can cover weak binding; strength is not graded here.
Experiments:
Experiment in all cases: co-IP; HEK293T cells transfected with GFP-tagged bait, lysed 24 h post-transfection, captured on GFP affinity resin (GFP-TRAP), SDS-PAGE and immunoblot of endogenous partners
[1] = target: pUL21 C-terminal domain, GFP attached to the carboxy terminus (HSV-1 strain KOS)
[2] = target: pORF38-GFP, the VZV homologue of pUL21 with a C-terminal GFP tag (varicella-zoster virus isolate HJ0)
[3] = target: pUL21 C-terminal domain, GFP fused to the start of the domain (HSV-1 strain KOS)

B1: ceramide-transport protein CERT, endogenous (protein, UniProt Q9Y5P4 1-624)
chain: MSDNQSWNSSGSEEDPETESGPPVERCGVLSKWTNYIHGWQDRWVVLKNNALSYYKSEDETEYGCRGSICLSKAVITPHDFDECRFDISVNDSVWYLRAQDPDHRQQWIDAIEQHKTESGYGSESSLRRHGSMVSLVSGASGYSATSTSSFKKGHSLREKLAEMETFRDILCRQVDTLQKYFDACADAVSKDELQRDKVVEDDEDDFPTTRSDGDFLHSTNGNKEKLFPHVTPKGINGIDFKGEAITFKATTAGILATLSHCIELMVKREDSWQKRLDKETEKKRRTEEAYKNAMTELKKKSHFGGPDYEEGPNSLINEEEFFDAVEAALDRQDKIEEQSQSEKVRLHWPTSLPSGDAFSSVGTHRFVQKPYSRSSSMSSIDLVSASDDVHRFSSQVEEMVQNHMTYSLQDVGGDANWQLVVEEGEMKVYRREVEENGIVLDPLKATHAVKGVTGHEVCNYFWNVDVRNDWETTIENFHVVETLADNAIIIYQTHKRVWPASQRDVLYLSVIRKIPALTENDPETWIVCNFSVDHDSAPLNNRCVRAKINVAMICQTLVSPPEGNQEISRDNILCKITYVANVNPGGWAPASVLRAVAKREYPKFLKRFTSYVQEKTAGKPILF
- binding [1]: binds
- binding [2]: no binding
- binding [3]: no binding
